Laboratory results from the supplement of paper PMC6078165.
The reference is the same well before dosing, and untreated signal decays as well.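 Labels refer to human fibroblasts, largely primary: uterine (C12385, HUF), lung (H6013), bone (Hs27A), adrenal (HADF), skin (WS1), plus mammary HMF and breast cancer-associated Hs343T. Cancer lines are basal-like or mesenchymal-like triple-negative breast cancer. The paper counts as hits responses shifting over 3x the replicate standard deviation. The tissue of the other fibroblasts is not given here.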

Test system: MDAMB468
Test: relative JC-1 red fluorescence (viability) vs pre-drug, coculture with fibroblast (fraction); higher = more viable cancer cells
Description: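 JC-1 labelled TNBC cells cocultured 1:1 (1,500 cells each) with CellTrace Violet stained primary or stromal fibroblasts in 384-well plates in FluoroBrite medium, treated with one of 42 anticancer drugs at 0.1, 1, 10 or 100 uM. JC-1 red fluorescence (mitochondrial integrity in cancer cells only) was read by plate reader every 8 h for 72 h. Values are normalised to each well's pre-drug value. The stock of one drug was tenfold lower, so its dose labels may be too high.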

CC(=O)O[C@H]1C(=O)[C@@]2(C)[C@H]([C@H](OC(=O)c3ccccc3)[C@]3(O)C[C@H](OC(=O)[C@H](O)[C@@H](NC(=O)c4ccccc4)c4ccccc4)C(C)=C1C3(C)C)[C@]1(OC(C)=O)CO[C@@H]1C[C@@H]2O [Paclitaxel]
relative JC-1 red fluorescence
Conditions | 8 h | 16 h | 24 h | 32 h | 40 h | 48 h | 56 h | 64 h | 72 h
0.1 µM, coculture fibroblast: C12385 | 0.8873 | 0.8154 | 0.772 | 0.726 | 0.687 | 0.678 | 0.63 | 0.608 | 0.612
0.1 µM, coculture fibroblast: H6013 | 0.917 | 0.83 | 0.83 | 0.833 | 0.816 | 0.835 | 0.794 | 0.809 | 0.751
0.1 µM, coculture fibroblast: H6019 | 0.826 | 0.814 | 0.816 | 0.799 | 0.772 | 0.77 | 0.734 | 0.722 | 0.71
0.1 µM, coculture fibroblast: H6076 | 0.943 | 0.889 | 0.888 | 0.898 | 0.81716 | 0.81 | 0.769 | 0.75 | 0.814
0.1 µM, coculture fibroblast: H6231 | 0.84 | 0.942 | 0.8625 | 0.812 | 0.7393 | 0.72 | 0.669 | 0.641 | 0.638
0.1 µM, coculture fibroblast: HADF | 0.92 | 0.8146 | 0.785 | 0.772 | 0.729 | 0.728 | 0.689 | 0.674 | 0.609
0.1 µM, coculture fibroblast: HCFa | 0.857 | 0.803 | 0.758 | 0.73 | 0.647 | 0.634 | 0.568 | 0.523 | 0.463
0.1 µM, coculture fibroblast: HCPF | 0.9059 | 0.92 | 0.872 | 0.899 | 0.8161 | 0.775 | 0.707 | 0.676 | 0.655
0.1 µM, coculture fibroblast: HHSteC | 0.905 | 0.844 | 0.823 | 0.793 | 0.73 | 0.748 | 0.678 | 0.652 | 0.589
0.1 µM, coculture fibroblast: HMF | 0.862 | 0.932 | 0.858 | 0.844 | 0.754 | 0.728 | 0.675 | 0.657 | 0.638
0.1 µM, coculture fibroblast: HPFa | 0.919 | 0.889 | 0.822 | 0.764 | 0.688 | 0.674 | 0.612 | 0.579 | 0.5
0.1 µM, coculture fibroblast: HUF | 0.9135 | 0.795 | 0.72 | 0.643 | 0.578 | 0.546 | 0.501 | 0.47 | 0.447
0.1 µM, coculture fibroblast: Hs5 | 0.762 | 0.972 | 0.9352 | 0.93 | 0.855 | 0.8122 | 0.758 | 0.719 | 0.749
0.1 µM, coculture fibroblast: Hs27A | 0.869 | 0.7955 | 0.8051 | 0.79 | 0.743 | 0.745 | 0.726 | 0.723 | 0.67
0.1 µM, coculture fibroblast: Hs343T | 0.932 | 0.98206 | 0.927 | 0.894 | 0.8104 | 0.782 | 0.6973 | 0.67 | 0.641
0.1 µM, coculture fibroblast: WS1 | 0.8817 | 0.745 | 0.702 | 0.646 | 0.589 | 0.553 | 0.502 | 0.478 | 0.477
1 µM, coculture fibroblast: C12385 | 0.8871 | 0.823 | 0.78 | 0.721 | 0.677 | 0.65 | 0.608 | 0.59 | 0.585
1 µM, coculture fibroblast: H6013 | 0.942 | 0.912 | 0.89 | 0.896 | 0.888 | 0.903 | 0.867 | 0.873 | 0.812
1 µM, coculture fibroblast: H6019 | 0.827 | 0.799 | 0.789 | 0.768 | 0.747 | 0.739 | 0.708 | 0.682 | 0.669
1 µM, coculture fibroblast: H6076 | 0.899 | 0.893 | 0.893 | 0.936 | 0.864 | 0.87 | 0.8526 | 0.8482 | 0.9461
1 µM, coculture fibroblast: H6231 | 0.85246 | 0.884 | 0.8034 | 0.81 | 0.723 | 0.719 | 0.674 | 0.649 | 0.653
1 µM, coculture fibroblast: HADF | 0.918 | 0.8656 | 0.821 | 0.803 | 0.761 | 0.767 | 0.725 | 0.724 | 0.666
1 µM, coculture fibroblast: HCFa | 0.871 | 0.846 | 0.796 | 0.768 | 0.705 | 0.688 | 0.627 | 0.597 | 0.536
1 µM, coculture fibroblast: HCPF | 0.905 | 0.893 | 0.868 | 0.895 | 0.815 | 0.785 | 0.735 | 0.728 | 0.731
1 µM, coculture fibroblast: HHSteC | 0.92 | 0.854 | 0.815 | 0.782 | 0.738 | 0.737 | 0.666 | 0.6394 | 0.585
1 µM, coculture fibroblast: HMF | 0.8366 | 0.9011 | 0.846 | 0.8348 | 0.74365 | 0.7118 | 0.6608 | 0.6419 | 0.639
1 µM, coculture fibroblast: HPFa | 0.935 | 0.902 | 0.857 | 0.795 | 0.759 | 0.747 | 0.671 | 0.644 | 0.57
1 µM, coculture fibroblast: HUF | 0.903 | 0.797 | 0.743 | 0.68 | 0.636 | 0.612 | 0.56547 | 0.548 | 0.529
1 µM, coculture fibroblast: Hs5 | 0.882 | 0.87 | 0.948 | 0.936 | 0.842 | 0.799 | 0.756 | 0.725 | 0.758
1 µM, coculture fibroblast: Hs27A | 0.8879 | 0.8346 | 0.8247 | 0.8225 | 0.786 | 0.781 | 0.78 | 0.781 | 0.726
1 µM, coculture fibroblast: Hs343T | 0.863 | 0.902 | 0.837 | 0.821 | 0.727 | 0.692 | 0.64 | 0.613 | 0.592
1 µM, coculture fibroblast: WS1 | 0.86 | 0.75489 | 0.717 | 0.6548 | 0.628 | 0.603 | 0.582 | 0.5653 | 0.5635
10 µM, coculture fibroblast: C12385 | 0.907 | 0.855 | 0.843 | 0.797 | 0.76 | 0.762 | 0.732 | 0.71 | 0.705
10 µM, coculture fibroblast: H6013 | 0.9194 | 0.8692 | 0.8665 | 0.852 | 0.815 | 0.831 | 0.809 | 0.8023 | 0.73901
10 µM, coculture fibroblast: H6019 | 0.854 | 0.831 | 0.821 | 0.797 | 0.773 | 0.774 | 0.738 | 0.721 | 0.716
10 µM, coculture fibroblast: H6076 | 0.853 | 0.7938 | 0.864 | 0.799 | 0.957 | 0.949 | 0.906 | 0.885 | 0.857
10 µM, coculture fibroblast: H6231 | 0.84 | 0.975 | 0.8877 | 0.834 | 0.754 | 0.714 | 0.646 | 0.622 | 0.592
10 µM, coculture fibroblast: HADF | 0.94595 | 0.897 | 0.876 | 0.886 | 0.827 | 0.822 | 0.784 | 0.77 | 0.709
10 µM, coculture fibroblast: HCFa | 0.9152 | 0.8179 | 0.8002 | 0.7613 | 0.701 | 0.699 | 0.666 | 0.649 | 0.601
10 µM, coculture fibroblast: HCPF | 0.893 | 0.988 | 0.921 | 0.9074 | 0.836 | 0.793 | 0.727 | 0.705 | 0.692
10 µM, coculture fibroblast: HHSteC | 0.9455 | 0.919 | 0.884 | 0.849 | 0.7977 | 0.80676 | 0.7531 | 0.7356 | 0.6925
10 µM, coculture fibroblast: HMF | 0.873 | 0.919 | 0.9184 | 0.889 | 0.825 | 0.802 | 0.727 | 0.707 | 0.683
10 µM, coculture fibroblast: HPFa | 0.865 | 0.959 | 0.929 | 0.89 | 0.847 | 0.822 | 0.783 | 0.753 | 0.674
10 µM, coculture fibroblast: HUF | 0.9405 | 0.8601 | 0.82 | 0.74 | 0.687 | 0.658 | 0.615 | 0.598 | 0.578
10 µM, coculture fibroblast: Hs5 | 0.859 | 0.9827 | 0.948 | 0.949 | 0.875 | 0.838 | 0.7928 | 0.768 | 0.805
10 µM, coculture fibroblast: Hs27A | 0.88 | 0.8635 | 0.83 | 0.826 | 0.781 | 0.774 | 0.74 | 0.725 | 0.684
10 µM, coculture fibroblast: Hs343T | 0.908 | 0.756 | 0.9395 | 0.893 | 0.793 | 0.746 | 0.665 | 0.633 | 0.585
10 µM, coculture fibroblast: WS1 | 0.8995 | 0.814 | 0.784 | 0.728 | 0.673 | 0.647 | 0.622 | 0.587 | 0.57
